From article PMC4828706
These are yes or no findings as the source states them, for the method shown. In cells and extracts the contact can be indirect. Some binding calls cover weakened binding; strength is not graded here.

Chains of the proteins cited; added tags and fusions are not shown. Residues count along the entry.
UniProt Q8BWG9: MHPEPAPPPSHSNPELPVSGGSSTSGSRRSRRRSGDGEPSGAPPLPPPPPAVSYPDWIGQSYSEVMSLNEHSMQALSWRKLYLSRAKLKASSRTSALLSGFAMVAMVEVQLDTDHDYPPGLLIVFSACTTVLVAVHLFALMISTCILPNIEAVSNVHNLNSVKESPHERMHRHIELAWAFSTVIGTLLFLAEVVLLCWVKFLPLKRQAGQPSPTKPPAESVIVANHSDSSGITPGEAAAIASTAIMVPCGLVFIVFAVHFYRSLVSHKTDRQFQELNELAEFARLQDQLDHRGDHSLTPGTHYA
UniProt Q96D31: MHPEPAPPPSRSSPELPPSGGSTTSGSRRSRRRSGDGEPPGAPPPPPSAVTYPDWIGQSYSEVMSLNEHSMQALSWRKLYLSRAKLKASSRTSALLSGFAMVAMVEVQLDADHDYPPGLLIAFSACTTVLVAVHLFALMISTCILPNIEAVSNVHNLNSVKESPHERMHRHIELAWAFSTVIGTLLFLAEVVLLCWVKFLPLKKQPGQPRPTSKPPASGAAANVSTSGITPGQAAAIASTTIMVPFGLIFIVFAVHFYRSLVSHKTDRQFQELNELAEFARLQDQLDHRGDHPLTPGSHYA
UniProt Q13586, residues 23-685: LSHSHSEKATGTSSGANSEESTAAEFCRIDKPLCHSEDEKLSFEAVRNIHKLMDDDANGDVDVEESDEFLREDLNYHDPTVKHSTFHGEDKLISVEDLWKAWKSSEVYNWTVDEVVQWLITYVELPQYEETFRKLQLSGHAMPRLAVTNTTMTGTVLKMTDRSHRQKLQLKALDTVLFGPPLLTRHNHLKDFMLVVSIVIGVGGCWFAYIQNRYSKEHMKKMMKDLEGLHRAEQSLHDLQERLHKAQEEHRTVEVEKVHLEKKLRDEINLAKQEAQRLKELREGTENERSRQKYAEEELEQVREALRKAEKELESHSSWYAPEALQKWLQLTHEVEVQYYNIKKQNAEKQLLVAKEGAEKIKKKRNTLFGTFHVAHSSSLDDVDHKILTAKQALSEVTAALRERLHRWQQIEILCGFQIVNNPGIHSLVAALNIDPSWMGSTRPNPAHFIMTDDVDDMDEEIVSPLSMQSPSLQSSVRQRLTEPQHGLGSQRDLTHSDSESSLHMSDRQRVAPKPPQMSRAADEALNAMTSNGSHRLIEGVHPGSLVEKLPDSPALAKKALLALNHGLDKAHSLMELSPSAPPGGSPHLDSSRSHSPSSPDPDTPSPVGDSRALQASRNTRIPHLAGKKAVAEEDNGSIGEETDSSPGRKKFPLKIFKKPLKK

Columns and labels:
[1] = biological target: T1, SARAF (endogenous in NG115-401L cells) (not stated (endogenous in NG115-401L)) (UniProt Q8R3Q0); assay: co-IP; endogenous proteins in whole cell lysates of STIM1-deficient NG115-401L cells; before and 30, 60, 120 s after TG 1 μM, 300 μM extracellular Ca2+
T1 sequence: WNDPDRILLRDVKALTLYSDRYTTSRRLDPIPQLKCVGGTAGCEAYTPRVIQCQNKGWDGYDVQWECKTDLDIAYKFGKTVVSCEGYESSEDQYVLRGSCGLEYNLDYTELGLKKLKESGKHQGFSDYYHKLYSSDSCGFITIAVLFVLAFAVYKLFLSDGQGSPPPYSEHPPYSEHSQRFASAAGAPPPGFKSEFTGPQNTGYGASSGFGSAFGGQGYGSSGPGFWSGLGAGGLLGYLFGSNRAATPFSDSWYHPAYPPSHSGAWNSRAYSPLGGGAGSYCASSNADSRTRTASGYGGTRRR

[2] = biological target: T2, SOCE-associated regulatory factor (SARAF) (human (endogenous in MEG-01)) (UniProt Q96BY9); assay: co-IP; endogenous proteins in MEG-01 whole cell lysates (NP-40 buffer, pH 8), protein A-agarose overnight at 4 °C; IP anti-STIM1 and blot anti-Orai1 (Fig. 1d), IP with the indicated antibody and blots anti-Orai1, anti-SARAF, anti-STIM1 (Fig. 4a); resting cells and cells treated with TG 1 μM (30, 60, 120 s or 3 min); also cells overexpressing SARAF or with siSARAF
T2 sequence: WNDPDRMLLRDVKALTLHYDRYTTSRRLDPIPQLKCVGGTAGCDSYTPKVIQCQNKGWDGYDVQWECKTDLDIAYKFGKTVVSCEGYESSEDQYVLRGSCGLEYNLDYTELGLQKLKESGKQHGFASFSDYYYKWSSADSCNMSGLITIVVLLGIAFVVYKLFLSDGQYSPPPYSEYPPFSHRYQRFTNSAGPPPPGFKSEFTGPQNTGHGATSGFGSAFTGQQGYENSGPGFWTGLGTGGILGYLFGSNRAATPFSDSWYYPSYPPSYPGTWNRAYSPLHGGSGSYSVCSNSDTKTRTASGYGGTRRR

[3] = biological target: T2, SOCE-associated regulatory factor (SARAF) (human (endogenous in MEG-01)); assay: proximity ligation; Duolink in situ PLA on fixed, permeabilised MEG-01 cells; rabbit anti-SARAF with mouse anti-STIM1 or mouse anti-Orai1; resting cells and TG 1 μM for 30 or 120 s

binding [1] | binding [2] | binding [3] | Substance
binds | – | – | Orai1 (endogenous in NG115-401L cells) (from UniProt Q8BWG9 1-304)
– | binds | binds | Orai1 (from UniProt Q96D31 1-301)
– | binds | binds | STIM1 (from UniProt Q13586 23-685)
